From publication PMC12040169 (PLOS Biology, 2025)
The list shows a part of the results.

The compounds below were run on T1, CTL2-GFP (C. trachomatis L2/434/Bu, GFP-expressing). Settings: bulk GFP, single well; 28.5 h, 10 µM; inhibitor.
T1 construct: L2/434/Bu, GFP-expressing
Set-up: species or system HeLa; Intracellular C. trachomatis growth in HeLa cells, bulk GFP fluorescence relative to DMSO

Structure (SMILES)	% of control remaining
CCCc1nc(NC(CCO)c2ccc(C)cc2)c2cnn(C)c2n1 (stereo not drawn) [CBK307309]	103.127%
Cc1ccc(-c2nc(C)c(C(=O)Nc3ccc(-n4cncn4)nc3)s2)o1 [CBK297770]	126.375%
Cc1cc(NC(=O)C2CCN(C)CC2)c2ccccc2n1 [CBK122730]	130.648%
Cc1nn(C)cc1C(C)NC(=O)c1ccc2c(c1)ncn2C (stereo not drawn) [CBK281732]	110.585%
CN(C)c1ccc(/C=N/NC(=O)CSc2nnc(-c3ccccc3)n2-c2ccccc2)cc1 [CBK262263]	100%
OCCCNc1nccnc1-c1cccnc1 [CBK037277]	127.878%
Cc1nc(NC(=O)C2Cc3ccccc3S2)sc1-c1n[nH]c(=S)n1C (stereo not drawn) [CBK295337]	144.652%
COc1cccc(OC)c1OCCN1CCC(NC(=O)Nc2ccc(Cl)cn2)CC1 [CBK051515]	100%
CC1CCN(Cc2ccc(-c3cn(CC(=O)NCc4ccc(Br)cc4)nn3)cc2)CC1 [CBK164709]	84.6361%
CCN(CC)Cc1cc([N+](=O)[O-])cc2c1OCOC2 [CBK296613]	127.511%
O=C(C1=C(O)C(=O)N(CCCn2ccnc2)C1c1ccccc1)c1cccs1 (stereo not drawn) [CBK264484]	123.917%
COc1ccc(S(=O)(=O)Nc2ccsc2C(=O)N2CCN(C)CC2)cc1OC [CBK004627]	111.063%
O=C(COc1cccc2c1CCNC2=O)Nc1ccccc1 [CBK287730]	123.513%
CN1CCN(c2cc(-c3ccncc3)nc3ccccc23)CC1 [CBK050976B]	124.203%
O=C1CNC(=O)N1CC(O)Cn1c2ccc(Cl)cc2c2cc(Cl)ccc21 (stereo not drawn) [CBK265792]	114.629%
CC(=O)Nc1ccc(OCC(O)CNC2CCCC2)cc1 (stereo not drawn) [CBK267857C]	167.861%
O=C(O)CC(NC(=O)OCc1ccccc1)c1ccccc1 (stereo not drawn) [CBK265351]	97.252%
COc1ncc(-c2nccnc2NCc2cccc([N+](=O)[O-])c2)c(OC)n1 [CBK036680]	122.145%
COC(=O)c1ccc(CO)nc1 [CBK261376C]	100%
O=C(c1ccc2c(c1)N(Cc1ccccc1Cl)C(=O)CO2)c1cccs1 [CBK286411]	118.227%
O=C1N[C@]2(CCc3ccccc31)CN(CC1CC=CCC1)C[C@H]2CO (stereo partly drawn) [CBK284794]	179.724%
Cn1cc2c(n1)CC1CCC2N1C(=O)c1ccc(F)c(F)c1 (stereo not drawn) [CBK281691]	116.111%
CCCn1c(C)c(C)n2c3c(=O)n(CCC(=O)OC)c(=O)n(C)c3nc12 [CBK306048]	84.0884%
Cc1nc(C(=O)NC2CCN(C)CC2)ccc1C(=O)O [CBK304262]	105.728%
CCNC(=O)C1(Cc2ccccc2-c2ccccc2)CCN(C(=O)c2cccc(F)c2)CC1 [CBK285689]	120.393%
O=C(O)CSc1nc(Nc2ccccc2)nc(N2CCOCC2)n1 [CBK269023]	110.798%

Structure (SMILES)	% of control remaining
Cn1ccc(CN2CCOC(c3nc(C(C)(C)C)cs3)C2)cc1=O (stereo not drawn) [CBK305771]	115.322%
CC(C)(C)c1cc(CCC(=O)NNC(=O)c2ccccc2Cl)cc(C(C)(C)C)c1O [CBK268391]	56.397%
CCOc1ccccc1NC(=O)CN(C)S(=O)(=O)c1ccc2ccccc2c1 [CBK266874]	151.422%
C#CCN(C)CC[C@@H]1CC[C@H](O)[C@@H](C(=O)N2CCOCC2)O1 [CBK288723]	136.769%
O=C(O)C1CCCCC1C(=O)NCCN1CCCCC1 (stereo not drawn) [CBK287031]	117.49%
O=C(Nc1ccc(S(=O)(=O)N2CCCC2)cc1)c1ccc(COc2ccc3c(c2)CCC3)o1 [CBK265847]	119.458%
NC(=O)c1cccc(-c2cnc(N)c(N3CCC[C@@H]3CO)n2)c1 [CBK063458]	125.207%
COc1ccccc1/C=N/N=C(/Nc1ccc(C)cc1)c1nc2ccccc2s1 [CBK265051]	97.2143%
CC(=O)N1CC[C@H]2NC(=O)CNC(=O)C3(CCCC[C@H]2C1)CCN(C(=O)CN1CCCCC1)CC3 [CBK292120]	132.628%
Cc1ccn2cc(CNC(=O)N(C)CCc3scnc3C)nc2c1 [CBK307379]	135.444%
O=C(NC(c1ccccc1)c1ccccc1)c1ccc(Cl)cc1[N+](=O)[O-] [CBK262452]	120.333%
CC(O)CN(CC(C)O)CC1CC2C=CC1C2 (stereo not drawn) [CBK261896]	116.655%
CC(C)Nc1cc(Sc2ccccc2N)ncn1 [CBK093729]	106.261%
CCC(c1ccc(F)cc1)N(C)C(=O)Cn1cccc(C(=O)NC2CCCCC2)c1=O (stereo not drawn) [CBK286114]	97.9142%
O=C(N[C@H]1CCN2C(=O)c3cc(Br)ccc3NC(=O)[C@H]12)c1cccc(F)c1 [CBK289334]	134.932%
N#Cc1cccnc1N1CC2COCCC2(C(=O)N2CCC=C(F)C2)C1 (stereo not drawn) [CBK304744]	128.706%
O=C(Cn1cnc2c(cnn2-c2ccccc2)c1=O)NCc1ccco1 [CBK287531]	146.524%
CCN(CC(=O)NCc1ccc(Cl)cc1)S(=O)(=O)N1CCCCCC1 [CBK305733]	109.337%
OCCN1CCC2(CC1)CN(CCO)c1ccccc12 [CBK126759]	108.909%
CCCn1nc(C)c(-c2cncn2CCCN2CCCCC2)c1C [CBK281496]	131.079%
CN1C(c2ccccc2)=NO[C@]1(C)c1ccccc1 [CBK027170]	124.429%
CN1CCN(NC(=O)COc2cccc(C(F)(F)F)c2)CC1 [CBK268124]	150.97%
CC(=O)NC(c1ccccn1)C1CCCN(C(=O)C2CC2C)C1 (stereo not drawn) [CBK285032]	124.716%
COc1ccc(C(=O)N2CCC3(CCCN(C(=O)CC4NC(=O)NC4=O)C3)C2)cc1OC (stereo not drawn) [CBK137082]	122.686%
O=C1CN(C(=O)Nc2ccc3[nH]ccc3c2)CCN1 [CBK155858]	108.633%
COc1cc(/C=C2\C(=O)N(c3ccccc3Cl)N=C2c2ccccc2)ccc1O [CBK265698]	133.836%

Ordered by heavy-atom count (descending): 3 of the compounds above
Structure (SMILES)	% of control remaining
CC(=O)N1CC[C@H]2NC(=O)CNC(=O)C3(CCCC[C@H]2C1)CCN(C(=O)CN1CCCCC1)CC3 [CBK292120]	132.628%
COc1ccc(C(=O)N2CCC3(CCCN(C(=O)CC4NC(=O)NC4=O)C3)C2)cc1OC (stereo not drawn) [CBK137082]	122.686%
CN1C(c2ccccc2)=NO[C@]1(C)c1ccccc1 [CBK027170]	124.429%

The list continues:

Structure (SMILES)	% of control remaining
COc1ccc2c(c1)C(C)CC(C)(C)N2C(=O)CSc1nnc(-c2ccco2)n1C (stereo not drawn) [CBK059169]	141.887%
C=CCn1ncc(CN(C)Cc2nc3ccccc3[nH]2)c1C [CBK283169]	97.9157%
CCCc1ccc(S(=O)(=O)n2ccn(-c3ccc4c(c3)OCO4)c2=O)cc1 [CBK106634]	88.3455%
CCN(CC)CCN1CCN(c2cncc(-c3ccc(F)cc3F)n2)CC1 [CBK065668]	159.035%
CCN(CC)C(=O)CN1CCC(Oc2cncc(OCCN3CCOCC3)n2)C1 (stereo not drawn) [CBK084490]	116.199%
Cc1cc(C)n(CC(=O)N2CCCC2c2ccc(C)c(C)c2)c(=O)n1 (stereo not drawn) [CBK282991]	132.866%
COC(=O)c1ccc(N2CCN(Cc3nc(C)c(C)o3)C(C)C2)cc1 (stereo not drawn) [CBK304903]	107.484%
CC(=O)C12c3ccccc3C(c3ccccc31)C1C(=O)N(c3ccc(Cl)c(C(=O)O)c3)C(=O)C12 (stereo not drawn) [CBK263021]	111.649%
COc1cccc(CN2CCN(CC(=O)N3CCCC3)[C@@H](C)C2)c1 [CBK286171]	142.232%
NC(=O)c1ccc(Nc2cc(N)ncn2)cc1 [CBK017969]	110.641%
CN1CCN(NC(=O)c2cc(-c3cccnc3)nc3ccc(Cl)cc23)CC1 [CBK267729]	126.585%
O=C(NC(=S)Nc1ccc2oc(-c3ccncc3)nc2c1)c1ccccc1[N+](=O)[O-] [CBK264106]	100%
Cn1ncc(N2CCN(C(=O)CCN3CCCCCC3=O)CC2)cc1=O [CBK306508]	115.104%
c1cncc(COc2nccnc2OC2CCN(CCOc3cccnc3)CC2)c1 [CBK083181]	132.832%
C(#Cc1ccc(-c2nc(-c3ccc(Sc4ccccc4)cc3)c(-c3ccc(Sc4ccccc4)cc3)[nH]2)cc1)c1ccccc1 [CBK261954]	110.367%
CCC12CN3CCN(CC(C3)/C1=N\O)C2 [CBK263022]	116.382%
CCN(CC1CCN(c2ccccn2)CC1)C(=O)C1(C#N)CCCC1 [CBK304096]	152.304%
CC(C)(N)CN(Cc1ccccc1)C(=O)/C=C/c1ccccc1 [CBK013891T]	98.0806%
O=S(=O)(Nc1ccc(-c2nnn[nH]2)cc1)c1c(Cl)cc(C(F)(F)F)cc1Cl [CBK155570]	105.612%
CC(C)Nc1nc2cc(Cl)c(Cl)cc2nc1SCCC(=O)O [CBK107860]	111.873%
CN(C)CCNC1CS(=O)(=O)CC1O (stereo not drawn) [CBK059025]	125.534%
O=C(NCc1ccncc1)c1nn(-c2ncccn2)c2ccccc12 [CBK048498]	100%
COc1nccc(N2CCC3(CCCN(CC4CCC4)C3=O)C2)c1C#N (stereo not drawn) [CBK306861]	125.329%
Cc1cccc(CNC(=O)CC2CCN(Cc3cccc(C(F)(F)F)c3)CC2)n1 [CBK285950]	115.886%
NS(=O)(=O)c1ccc(NC(=O)CN2C(=O)S/C(=C\C=C\c3ccccc3)C2=O)cc1 [CBK264835]	119.344%
CS(=O)(=O)c1ccc(-n2ncc(-c3cccc(C(F)(F)F)c3)n2)cc1 [CBK112672]	97.1627%
